In PubChem BioAssay AID540276 (National Center for Advancing Translational Sciences (NCATS), 2011):
Hit rate of the full screen: of about 300,000 compounds, about 5,400 (1.8%) were called active. This list was built around the results that the source calls inconclusive (neither active nor inactive); the mix of calls is not that of the screen. The call rests on the fitted dose curve; tested in HEK293 cells. Potencies beside an inconclusive call are fits to weak or partial responses and may not hold up.

Experiment: qHTS for inhibitors of binding or entry into cells for Marburg Virus
Settings: Marburg virus pseudotyped entry inhibition, cell reporter; activity change, negative = inhibition: at 37.8 µM (top of the series) unless noted
On the % scale 0 is the no-effect control and ±100 the full control effect; potency means the concentration at half of the fitted maximal effect.

SMILES | Potency | activity change, negative = inhibition
CN(C(=O)c1nn(C)c2c1COc1ccccc1-2)c1cccc(C(F)(F)F)c1 | inconclusive: 5.62 µM [inhibitor, full curve] | 
Cc1cc(C)c2nc(SCC(=O)NC(=O)c3cccn3C)cc(C)c2c1 | inconclusive: 14.1 µM [inhibitor, single point] | 
O=C(O)c1ccccc1-c1ccccc1C(=O)Nc1ccc2c(c1)[nH]c(=O)c1ccccc12 | inconclusive: 1.26 µM [inhibitor, single point] | 
Cc1cc(=O)[nH]c(SCC(=O)Nc2nc(-c3ccccc3)cs2)n1 |  | inactive: 14.6%
CCN(C(=O)COC(=O)c1ccccc1SCC(=O)NC1CCCCCCC1)C1CCS(=O)(=O)C1 (stereo not drawn) | inconclusive: 35.5 µM [activator, single point] | 
CCOC(=O)/C(=C\c1ccccc1)C(=O)CCN1CCOCC1 |  | inactive: 12%
Cc1ccccc1OCCSc1nnc(-c2ccncc2)n1C |  | inactive: -1.84%
O=C(N/N=C/c1cn(-c2ccccc2)nc1-c1ccc(F)cc1)c1ccc2c(c1)OCO2 | inconclusive: 35.5 µM [inhibitor, single point] | 
COc1ccc(/C=C2\C(=O)OCc3cc(OC)c(OC)cc32)cc1OC | inconclusive: 10 µM [inhibitor, partial curve, poor fit] | 
CCCCNc1nc(Oc2ccc(=O)n(-c3ccccc3)n2)nc(N(C)C)n1 |  | inactive: -2.14% [at 46.1 µM]
CC1(N2CCOCC2)CC2(O)C(=[N+]1[O-])CCc1c2no[n+]1[O-] (stereo not drawn) |  | inactive: -0.821%
Cc1cccc(N(CC(=O)Nc2ccc(F)cc2)S(C)(=O)=O)c1 |  | inactive: -3.38%
COCCCNC(=O)c1ccccc1NS(C)(=O)=O | inconclusive: 29.1 µM [activator, partial curve, poor fit] | 
CC12CCC(C(=O)Nc3ccccc3)(C(Br)C1=O)C2(C)C (stereo not drawn) | inconclusive: 5.62 µM [activator, single point] | 
Cc1[nH]nc2c1C(c1cc(Br)cs1)C(C#N)=C(N)O2 (stereo not drawn) | inconclusive: 14.1 µM [inhibitor, partial curve, poor fit] | 
CCOc1ccccc1C(=O)NCC(=O)NCC(c1ccco1)N1CCCCC1 (stereo not drawn) | inconclusive: 5.62 µM [inhibitor, single point] | 
O=C(CSCc1ccc(F)cc1)N1CCOCC1 |  | inactive: 4.26%
CC(C)Cc1cc(C(=O)N2CCC(N3CCC(C(=O)N4CCCC4)CC3)CC2)n[nH]1 | inconclusive: 5.62 µM [inhibitor, single point] | 
O=C(CN1CCCc2ccccc21)N/N=C/c1c(O)ccc2ccccc12 | inconclusive: 3.16 µM [inhibitor, partial curve, poor fit] | 
CCOc1ccccc1NC(=O)c1cccc(NC(=O)C2CCCC2)c1 | inconclusive: 35.5 µM [inhibitor, single point] | 
Cc1nc(Nc2cc(F)ccc2C)c2nnn(Cc3ccccc3)c2n1 | inconclusive: 35.5 µM [inhibitor, single point] | 
CCOC(=O)c1c(NC(=O)CSc2nc3ccccc3o2)sc(C(C)=O)c1C | inconclusive: 20.6 µM [activator, partial curve, poor fit] | 

Rewritten as tab-separated lines: entries from further up
SMILES	Potency	activity change, negative = inhibition
Cc1cc(=O)[nH]c(SCC(=O)Nc2nc(-c3ccccc3)cs2)n1		inactive: 14.6%
CCN(C(=O)COC(=O)c1ccccc1SCC(=O)NC1CCCCCCC1)C1CCS(=O)(=O)C1 (stereo not drawn)	inconclusive: 35.5 µM [activator, single point]	
CCOC(=O)/C(=C\c1ccccc1)C(=O)CCN1CCOCC1		inactive: 12%
Cc1ccccc1OCCSc1nnc(-c2ccncc2)n1C		inactive: -1.84%
O=C(N/N=C/c1cn(-c2ccccc2)nc1-c1ccc(F)cc1)c1ccc2c(c1)OCO2	inconclusive: 35.5 µM [inhibitor, single point]	
COc1ccc(/C=C2\C(=O)OCc3cc(OC)c(OC)cc32)cc1OC	inconclusive: 10 µM [inhibitor, partial curve, poor fit]	
CCCCNc1nc(Oc2ccc(=O)n(-c3ccccc3)n2)nc(N(C)C)n1		inactive: -2.14% [at 46.1 µM]
CC1(N2CCOCC2)CC2(O)C(=[N+]1[O-])CCc1c2no[n+]1[O-] (stereo not drawn)		inactive: -0.821%
Cc1cccc(N(CC(=O)Nc2ccc(F)cc2)S(C)(=O)=O)c1		inactive: -3.38%

More compounds follow.

SMILES | Potency | activity change, negative = inhibition
CC(=O)Nc1ccc(NC(=O)C(C)OC(=O)c2ccc(S(=O)(=O)N3CCCCC3)cc2)cc1 (stereo not drawn) | inconclusive: 14.1 µM [inhibitor, partial curve, poor fit] | 
O=Cc1cn(Cc2ccccc2[N+](=O)[O-])c2ccccc12 | inconclusive: 10.3 µM [inhibitor, partial curve, poor fit] | 
Cc1ccc(SCc2nc3ccccc3n2CC(=O)Nc2ccc(Cl)cc2)cc1 | inconclusive: 25.9 µM [inhibitor, single point] | 
COc1ccc(OCCCn2ccnc2)cc1 |  | inactive: -3.32% [at 46.1 µM]
COc1cccc2c(=O)cc(C)n(CC(=O)Nc3ccccc3C)c12 | inconclusive: 7.08 µM [inhibitor, single point] | 
CCC(CC)c1nn2c(=O)cc(COc3ccc(NC(=O)c4ccc(Cl)cc4)cc3)nc2s1 |  | inactive: 1.16% [at 46.1 µM]
COc1cc(/C=N/NC(=O)c2cccc3ccccc23)ccc1OCC(N)=O | inconclusive: 2.51 µM [inhibitor, full curve] | 
CCN(CC(=O)NCCc1ccccc1)S(=O)(=O)c1ccc(C)cc1 | inconclusive: 0.178 µM [inhibitor, full curve, poor fit] | 
OCCN(CCO)CC(O)COc1ccc2c(c1)OCO2 (stereo not drawn) | inconclusive: 35.5 µM [activator, single point] | 
Cc1cc(C(=O)NCCc2ccc(Cl)cc2)no1 | inconclusive: 3.55 µM [activator, single point] | 
CCCn1nc(C(=O)Nc2ccc3nc(N4CCOCC4)sc3c2)ccc1=O | inconclusive: 35.5 µM [inhibitor, single point] | 
O=C(c1ccco1)c1cn(CC(=O)N2CCCc3ccccc32)c2ccccc12 | inconclusive: 15.8 µM [inhibitor, single point] | 
CC(=O)NC1C(Oc2ccc3c(C)cc(=O)oc3c2)OC(COC(C)=O)C(OC(C)=O)C1OC(C)=O (stereo not drawn) | inconclusive: 15.8 µM [activator, single point] | 
Cc1ccccc1C(=O)N/N=C/c1ccc([N+](=O)[O-])s1 | active: 4.11 µM | 
CCOc1ccc(NC(=O)Cn2nc(-c3ccccc3Cl)n(CC)c2=S)cc1 | inconclusive: 35.5 µM [inhibitor, partial curve, poor fit] | 
COc1ccc(OC)c(CCNC(=O)c2ccc(CS(=O)Cc3cccc(Cl)c3)o2)c1 (stereo not drawn) | inconclusive: 11.2 µM [inhibitor, partial curve, poor fit] | 
Cc1nc(-c2ccc(NS(C)(=O)=O)cc2)cs1 | inconclusive: 6.31 µM [inhibitor, single point] | 
CCN1CCS/C1=C\C=C\C1=[N+](CC)CCS1 | active: 2.51 µM | 
O=C1CCC(=O)N1c1nc2nc(-c3ccccc3)cc(=O)n2[nH]1 |  | inactive: -1.05%
CCOc1ccc(CN(CCc2ccc3c(c2)OCO3)Cc2ccc(C)cc2)cc1 | inconclusive: 8.91 µM [inhibitor, partial curve, poor fit] | 
COc1ccc(OC)c2sc(N3CCc4ccccc4C3)nc12 |  | inactive: -29.7% [at 46.1 µM]
